Reference: article PMC7899339
For at least one entry, the source does not settle the construct or the ends of the probe. For some assays here: No signal at the amounts used counts as a negative. For some assays here: Weaker means in comparison with the reference protein, sequence or condition of that experiment.

Assays:
[1] = target: T1, MBP/DBD (NlFoxO DNA-binding domain) (Nilaparvata lugens) (UniProt A0A0M3M6L7); test: competition with a labelled probe; conditions: EMSA/Gel-Shift Kit (Beyotime) buffer, composition and pH not given, 0.2 pmol probe, 0.5-6 ug protein in 10 ul, 25 C, 20 min, recombinant protein, protein details: N-terminal MBP (pMAL-c5x)
MBP tag protein = test: EMSA; conditions: MBP tag control; EMSA/Gel-Shift Kit (Beyotime) buffer, composition and pH not given; 0.2 pmol probe, 0.5-6 ug protein in 10 ul; 25 C, 20 min; recombinant protein; protein details: MBP (pMAL-c5x vector alone)
[2] = target: T1, MBP/DBD (NlFoxO DNA-binding domain) (Nilaparvata lugens); test: EMSA; conditions: EMSA/Gel-Shift Kit (Beyotime) buffer, composition and pH not given, 0.2 pmol probe, 0.5-6 ug protein in 10 ul, 25 C, 20 min, recombinant protein, protein details: N-terminal MBP (pMAL-c5x)
[3] = binds, weaker than FRE1, label: 5' Alexa Fluor 680 on strand 1

Sequence	binding result [2, 3]	further results
CTCTTTGTTAATTCCACTACAACTTCAATTCCA (double strand) [FRE1_m]	–	binding result ([1]; excess FRE1_m vs labeled FRE1, complex unchanged): no binding
CTCTTTGTTAATTTGTTTACAACTTCAATTCCA (double strand) [FRE1]	–	binding result ([1]; unlabeled FRE1 10x, 50x, 100x vs labeled FRE1, gradual reduction): binds; binding result (MBP tag protein): no binding; binding result ([2]; strongest band of FRE1-5): binds
TGACTTGTGAGTGGTAAACAGATGTTCATGCGA (double strand) [FRE2]	binds more weakly	–
TGTTGAAAAGTACGTAAACACTACTGGATCAAT (double strand) [FRE4]	binds more weakly	–
TTCAATTTGGTATGTAAACAATCTAAATTAGAA (double strand) [FRE3]	binds more weakly	–
TTGAAGTGTTTACAGTGTTTTGTTTACTTTGAT (double strand) [FRE5]	binds more weakly	–
